Reference: doi:10.1101/2023.01.27.525886 (bioRxiv, 2023)
No constants are given. Whether binding was seen depends on the method and setting. Binding seen in cells or lysates may run through a third protein. Binding can be weak; no strength is given.

Assays:
Vtc3-TAPm = biological target: T1, Vtc3-TAPm (S. cerevisiae, UniProt Q02725 1-835); assay: affinity co-purification of the endogenous complex
T1 sequence: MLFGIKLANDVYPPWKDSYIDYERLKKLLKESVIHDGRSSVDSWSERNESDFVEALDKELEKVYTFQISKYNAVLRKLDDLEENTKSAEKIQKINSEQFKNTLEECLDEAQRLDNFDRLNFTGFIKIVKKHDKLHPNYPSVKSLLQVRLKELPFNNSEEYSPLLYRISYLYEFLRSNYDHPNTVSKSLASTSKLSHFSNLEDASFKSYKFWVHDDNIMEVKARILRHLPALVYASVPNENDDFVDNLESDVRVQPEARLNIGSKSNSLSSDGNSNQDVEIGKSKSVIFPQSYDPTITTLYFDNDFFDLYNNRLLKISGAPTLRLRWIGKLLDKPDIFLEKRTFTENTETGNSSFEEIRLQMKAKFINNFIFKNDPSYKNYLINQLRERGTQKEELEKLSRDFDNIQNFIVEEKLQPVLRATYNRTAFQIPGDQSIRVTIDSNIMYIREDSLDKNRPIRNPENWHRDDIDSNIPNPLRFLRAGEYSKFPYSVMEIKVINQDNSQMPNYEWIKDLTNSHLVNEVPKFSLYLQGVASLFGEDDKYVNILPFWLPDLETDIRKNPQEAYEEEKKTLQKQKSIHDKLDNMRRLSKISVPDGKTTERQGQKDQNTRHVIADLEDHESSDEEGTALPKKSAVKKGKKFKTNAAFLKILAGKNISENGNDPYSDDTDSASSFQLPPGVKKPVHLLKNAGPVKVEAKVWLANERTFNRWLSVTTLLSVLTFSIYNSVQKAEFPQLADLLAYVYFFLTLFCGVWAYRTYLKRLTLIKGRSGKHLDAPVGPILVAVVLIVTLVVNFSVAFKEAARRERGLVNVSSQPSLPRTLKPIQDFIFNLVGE

[1] = biological target: Vtc3(ΔSPX) (S. cerevisiae); assay: affinity co-purification of the endogenous complex

Molecule	binding (Vtc3-TAPm)	binding [1]
Vtc4(ΔSPX) (S. cerevisiae) (domain or fragment)	binds	
Vtc1 (natural protein) MSSAPLLQRTPGKKIALPTRVEPKVFFANERTFLSWLNFTVMLGGLGVGLLNFGDKIGRVSAGLFTFVAMGTMIYALVTYHWRAAAIRRRGSGPYDDRLGPTLLCFFLLVAVIINFILRLKYNDANTKL		binds
